In patent US5478939A, “(R,R) and (S,S) 2,5-diazabicyclo [2,2,1]heptane derivatives” (priority 1994, dated 1995):
At least one structure is not confirmed: it was looked up by name or label, or the drawing left a doubt.

Molecular target: muscarinic cholinergic receptor
Assay: [3H] Quinuclidinyl Benzilate (QNB) Binding Assay, cerebral cortex
Conditions: 3H-QNB 0.25 nM, rat cerebral cortex, 25° C., 120 minutes, pH 7.4; read-out: Ki, ^3 H-QNB (ctx)

Q: For `COc1nccnc1N1C[C@@H]2C[C@H]1CN2C` [Example 33, (S,S)-2-(3-Methoxypyrazinyl)-5-methyl-2,5-diazabicyclo[2.2.1]heptane], which Ki is on record?
A: Its Ki is > 1000 µM.
